# According to publication PMC7974533:
# Amino acid sequences for entries named in this document (tags omitted).
# UniProt P32856, whole entry: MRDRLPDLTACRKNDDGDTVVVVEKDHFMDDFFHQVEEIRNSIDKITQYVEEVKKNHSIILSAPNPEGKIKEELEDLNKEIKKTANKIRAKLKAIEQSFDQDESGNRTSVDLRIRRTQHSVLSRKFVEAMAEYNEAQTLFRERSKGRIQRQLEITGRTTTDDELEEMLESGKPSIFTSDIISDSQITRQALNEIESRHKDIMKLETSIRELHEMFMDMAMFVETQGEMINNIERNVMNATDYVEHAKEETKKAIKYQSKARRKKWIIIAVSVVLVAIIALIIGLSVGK
# Results are given in words; binding and its absence hold for the method and conditions named. In cells and extracts the contact can be indirect. These calls come from enrichment with a bait or labelling near it, and not all partners need be listed.
# Molecular target: Syntaxin 2 (UniProt P32856)
# Assay: affinity purification with mass spectrometry
substance,measurement,value
Rab8a (from UniProt P61006 1-207),binding,binds
